The source of these data is the supplement of paper PMC8728848.

The list shows a part of the results.

Common to all, as to assay: glycan array binding signal (z-score within array); higher = stronger binding
Common to all, as to conditions: glycan notation: IUPAC condensed, linker removed

Experiment [1] addresses Gal(b1-3)GlcNAc(b1-6)[Gal(b1-3)]GalNAc. Summed up: (§1)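 Columns mapping to the same glycan were averaged after glycan names were converted to IUPAC-condensed notation. The data come from 3228 arrays in the Consortium for Functional Glycomics database, limited to those with an available protein sequence. Binding is reported as a within-array Z-score averaged across arrays of one protein sequence and across linkers.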

For experiment [2], the target named is Gal(b1-3)GlcNAc6S. The method in brief:
as §1

The target of experiment [3] is Gal(b1-3)[Fuc(a1-4)]GlcNAc. The method in brief:
as §1

The target in experiment [4] is Gal(b1-3)[Fuc(a1-4)]GlcNAc(b1-2)Man. The method in brief: as §1
Experiment [5] concerns the target Gal(b1-3)[Fuc(a1-4)]GlcNAc(b1-2)Man(a1-3)[Gal(b1-3)[Fuc(a1-4)]GlcNAc(b1-2)Man(a1-6)]Man(b1-4)GlcNAc(b1-4)[Fuc(a1-6)]GlcNAc. Summed up:
as §1

Experiment [6] addresses Gal(b1-3)[Fuc(a1-4)]GlcNAc(b1-3)Gal(b1-3)[Fuc(a1-4)]GlcNAc. The method in brief: as §1
Experiment [7] addresses Gal(b1-3)[Fuc(a1-4)]GlcNAc(b1-3)Gal(b1-4)[Fuc(a1-3)]GlcNAc. Summed up:
as §1

The target of experiment [8] is Gal(b1-3)[Fuc(a1-4)]GlcNAc(b1-6)GalNAc. The method in brief: as §1
Experiment [9] deals with Gal(b1-3)[GlcNAc(b1-6)]GalNAc. Summed up: as §1
Experiment [10] has as its target Gal(b1-3)[Neu5Ac(a2-6)]GalNAc. The method in brief: as §1
Experiment [11] addresses Gal(b1-3)[Neu5Ac(a2-6)]GlcNAc(b1-4)Gal(b1-4)Glc. Summed up:
as §1

Experiment [12] deals with Gal(b1-3)[Neu5Ac(b2-6)]GalNAc. The method in brief:
as §1

Experiment [13] deals with Gal(b1-4)Gal. The method in brief:
as §1

Experiment [14] concerns the target Gal(b1-4)GalNAc(a1-3)[Fuc(a1-2)]Gal(b1-4)GlcNAc. Summed up: as §1
The target of experiment [15] is Gal(b1-4)GalNAc(b1-3)[Fuc(a1-2)]Gal(b1-4)GlcNAc. The method in brief:
as §1

Experiment [16] deals with Gal(b1-4)Glc. The method in brief:
as §1

Experiment [17] deals with Gal(b1-4)Glc6S. The method in brief: as §1
Experiment [18] addresses Gal(b1-4)GlcNAc. Summed up: as §1
In experiment [19] the target is Gal(b1-4)GlcNAc(a1-6)Gal(b1-4)GlcNAc. The method in brief: as §1
Experiment [20] has as its target Gal(b1-4)GlcNAc(b1-2)Man. The method in brief:
as §1

For experiment [21], the target named is Gal(b1-4)GlcNAc(b1-2)Man(a1-3)Man(b1-4)GlcNAc(b1-4)GlcNAc. Summed up:
as §1

Experiment [22] deals with Gal(b1-4)GlcNAc(b1-2)Man(a1-3)[Gal(b1-4)GlcNAc(b1-2)Man(a1-6)]Man(b1-4)GlcNAc(b1-4)GlcNAc. The method in brief: as §1

B1: EULS2 M1 (Oryza sativa) (protein)
chain: MVYCRANPNYAMTARNGAVVLAPANPKDEYQHWIKDMRWSTSIKDEEGYPAFALVNKATGQAIKHSLGQSHPVRLVPYNPEVMDESVLWTESRDVGNGFRCIRMVNNIYLNFDAFHGDKYHGGVRDGTDIVLWKLCEGDNQRWKIQPYYILEQKLISEEDLNSAVDHHHHHH
In the case of B1, the “glycan array binding signal (z-score)” value is 0.808 in experiment [1]; 0.324 in [2]; -0.54 in [3]; 1.75 in [4]; 1.19 in [5]; 3.42 in [6]. For the same molecule, the “glycan array binding signal (z-score)” value in [7] was -1.44; in [8] it was 0.91; in [9], -0.527; in [10] it was 1.39; in experiment [11], -0.492; in experiment [12] it was 2.3. The “glycan array binding signal (z-score)” value in [13] was 0.801; in [14], 0.104; in experiment [15], 0.097; in [16], -0.471; in experiment [17] it was -1.02; in [18] it was -0.618. For the same molecule, the “glycan array binding signal (z-score)” value in experiment [19] is -0.065; in [20] it was -0.009; in experiment [21], -0.001; in [22], -0.312.
